≈ marks a conversion by molar mass, not a printed value.
Test system: Staphylococcus aureus
Assay: microbe, parasite or virus in culture
Details: 1199B, 18 h

O=C(O)c1cn(C2CC2)c2cc(N3CCNCC3)c(F)cc2c1=O [CIPROFLOXACIN]
MIC: 8 µg/mL (≈ 24.1 µM)
